Test results: publication PMC9197937

By UniProt entry, the sequences of proteins in these tests, tags left out.
UniProt P11484: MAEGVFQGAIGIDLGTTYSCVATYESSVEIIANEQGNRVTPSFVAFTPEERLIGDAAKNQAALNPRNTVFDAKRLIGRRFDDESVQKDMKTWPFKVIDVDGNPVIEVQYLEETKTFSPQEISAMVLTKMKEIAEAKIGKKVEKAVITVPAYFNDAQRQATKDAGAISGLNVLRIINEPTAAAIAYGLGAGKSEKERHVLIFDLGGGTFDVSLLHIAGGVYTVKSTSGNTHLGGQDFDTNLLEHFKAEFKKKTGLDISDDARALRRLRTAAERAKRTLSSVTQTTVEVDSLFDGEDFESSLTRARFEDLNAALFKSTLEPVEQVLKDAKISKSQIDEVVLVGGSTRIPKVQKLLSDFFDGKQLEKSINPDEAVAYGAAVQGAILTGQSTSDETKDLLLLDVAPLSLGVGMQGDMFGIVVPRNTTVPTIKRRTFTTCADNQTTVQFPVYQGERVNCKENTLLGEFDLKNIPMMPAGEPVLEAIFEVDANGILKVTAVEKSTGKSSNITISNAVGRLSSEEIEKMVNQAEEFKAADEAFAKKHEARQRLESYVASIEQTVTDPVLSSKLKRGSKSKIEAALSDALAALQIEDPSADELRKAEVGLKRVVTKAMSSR

Assays:
[1] = molecular target: T1, Strep-Pmt1 nascent chain stalled at the triple-proline motif (PPP construct) (S. cerevisiae) (UniProt P33775); assay: affinity purification with mass spectrometry; RNCs captured by the Strep tag of the nascent chain on Strep-Tactin Sepharose, 4 °C, from crude ribosomal pellets of Δdom-PPP cells; endogenous factors found by SDS-PAGE and MS
T1 sequence (chain, nascent chain-tRNA (NC-tRNA)): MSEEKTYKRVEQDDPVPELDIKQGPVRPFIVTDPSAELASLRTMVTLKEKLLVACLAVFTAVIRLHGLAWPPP

[2] = molecular target: T2, Zuo1 with a C-terminal 3X-FLAG tag (S. cerevisiae) (UniProt P32527); assay: affinity purification with mass spectrometry; Zuo1-3X-FLAG captured from extracts of log-phase yeast on Anti-FLAG M2 Affinity Gel, 4 °C, 40 mM HEPES-KOH pH 7.5, 100 mM KCl, 10 mM MgCl2, eluted with flag peptides; SDS-PAGE bands and sample identified by MS; endogenous 80S-RAC complexes
T2 sequence: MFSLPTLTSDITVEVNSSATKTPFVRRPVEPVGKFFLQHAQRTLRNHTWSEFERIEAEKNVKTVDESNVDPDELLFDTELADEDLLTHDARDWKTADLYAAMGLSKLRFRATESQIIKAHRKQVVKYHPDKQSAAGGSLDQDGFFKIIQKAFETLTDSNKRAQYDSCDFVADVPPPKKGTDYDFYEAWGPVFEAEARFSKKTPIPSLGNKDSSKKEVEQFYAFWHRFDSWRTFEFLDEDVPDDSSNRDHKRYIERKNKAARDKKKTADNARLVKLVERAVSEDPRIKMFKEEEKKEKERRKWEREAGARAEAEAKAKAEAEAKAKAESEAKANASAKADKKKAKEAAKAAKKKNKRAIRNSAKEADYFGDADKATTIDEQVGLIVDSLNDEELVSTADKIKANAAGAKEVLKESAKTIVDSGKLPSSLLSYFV

[3] = molecular target: T1, Strep-Pmt1 nascent chain stalled at the triple-proline motif (PPP construct) (S. cerevisiae); assay: affinity purification with mass spectrometry; RNCs captured by the Strep tag of the nascent chain on Strep-Tactin Sepharose, 4 °C; crude ribosomal pellets of Δdom-PPP cells dissolved with 6.4 μM recombinant RAC, 40 mM HEPES-KOH pH 7.5, 100 mM KCl, 5 mM MgCl2, cycloheximide; SDS-PAGE and MS; only the binder purified

Molecule: Ssb1 (endogenous) (from UniProt P11484 1-613)
binding [1]: binds | binding [2]: binds

binding [3]: binds
B1: Zuo1 of recombinant RAC (protein, UniProt P32527 1-433)
chain: T2 sequence

Results are given in words; binding and its absence hold for the method and conditions named. Binding seen in cells or lysates may run through a third protein. Here binding means that the protein was enriched with, or labelled near, the bait; the list need not be complete. For part of these data: Tags and fused reporters may be left off the sequences shown. Each block holds one molecule with its values, some of them ahead of it.
